PubChem BioAssay AID1347076 (National Center for Advancing Translational Sciences (NCATS), 2019)
In all, about 400,000 compounds went through this assay and about 13,000 (3.2%) were called active. Inconclusive results, whose numbers are uncertain, are shown with a selection of clear calls. Calls follow the shape of the dose curve; as a rule, active = well fitted cell-killing curve with a large enough effect; inconclusive = small, poorly fitted or top-dose-only effect, or effect the other way; inactive = flat fitted curve, though single readings scatter. Potencies beside an inconclusive call are fits to weak or partial responses and may not hold up. Some structures have more than one record in an assay (separate samples or runs), and their calls can disagree.

Test: qHTS assay for MDR1-selective chemotherapeutics: Primary screen using the drug-selected MDR subline cells KB-V1; also: nearly all actives have a fitted effect of over 60% in size
Conditions: KB-V1 MDR cells viability, CellTiter-Glo, 72 h; activity change, negative = cytotoxicity: at 46.1 µM (top of the series)
Text: A prime difficulty in effectively treating cancer is the development of cellular resistance to multiple structurally unrelated anticancer drugs, a phenomenon known as multidrug resistance (MDR). […] Numerous strategies to overcome P-gp-mediated MDR have been explored, including the design of drugs that evade recognition and efflux, and development of inhibitors to block efflux and restore drug accumulation. […] An alternative approach is to exploit resistance by identifying drugs that target MDR cells over the non-resistant parental cells from which they were selected. […] The development of MDR1-selective agents represents a new strategy for resolving multidrug resistance, as it remains a long-standing clinical challenge for cancer chemotherapy.
Our goal is to identify compounds that selectively kill P-gp-expressing MDR cells. We will identify MDR1-selective compounds by comparing toxicity of compounds in the screening library against parental, drug-naive (KB-3-1) adenocarcinoma cells as well as their drug-selected MDR sub-line (KB-V1). The differential toxicity of compounds against these two cell lines will be used to identify MDR1-selective compounds, whose cytotoxicity is potentiated, rather than diminished, by P-gp expression. This assay will be utilized to conduct a quantitative high-throughput screen (qHTS) in collaboration with the NIH Chemical Genomics Center to identify selective agents, and probe hits arising from the screen will be validated using secondary assays and characterized through a well-established follow-up research program. This screen was run against the entire NCGC library collection of about 400,000 compounds.
NIH Molecular Libraries Probe Production Network [MLPCN]
NIH Chemical Genomics Center [NCGC]
PI: Michael Gottesman, National Cancer Institute, NIH
Briefly, 5 microL of media containing either KB-V1 cells (columns 1-2, 4-48) are dispensed into Greiner white, treated solid-bottom 1536-well assay plates (media-only control is added to column 3). Compounds are then transferred via Kalypsys pin tool equipped with 1536-pin array (10 nL slotted pins, V&P Scientific, San Diego, CA). Following addition of compound, the plates are incubated at 37 degrees C for 72 hours. CellTiter-Glo (2.5 µL/well) is then added, and the plates are read in a ViewLux reader (Perkin-Elmer, clear luminescence filter, 1 second exposure, 1x binning) following a 10 minute incubation. All cells are dispensed in DMEM phenol-red free media containing 10% FBS.
Library plates were screened starting from the lowest and proceeding to the highest concentration. Vehicle-only plates, with DMSO being pin-transferred to columns 5-48, will be inserted uniformly at the beginning and the end of each library in order to monitor and record any shifts in the background, which can be affected by reagent dispensers or loss in enzyme activity over time. Screening data will be corrected, normalized, and concentration-effect relationships will be derived by using publicly-available NCGC, NCATS curve fitting algorithms (http://ncgc.nih.gov/pub/openhts).
% is scaled to controls: 0 for no effect and ±100 for the full control effect; potency is read from the fitted curve at half-maximal effect.

Structure (SMILES) | activity change, negative = cytotoxicity | Potency
CSc1ncc(C(=O)Nc2ccccc2C(F)(F)F)c(-c2ccccc2)n1 | inactive: -12.1% | 
CCOC(=O)c1ccc(N2C(=O)c3[nH]nc(-c4ccc(C)cc4)c3C2c2cccs2)cc1 (centres undefined) |  | inconclusive: 29.1 µM [cytotoxic, single point]
Cc1ccc(/C(O)=C2\C(=O)C(=O)N(C)C2c2ccc(Br)cc2)cc1 (centres undefined) |  | inconclusive: 29.1 µM [cytotoxic, single point]
COc1cc2ccccc2cc1C(=O)N/N=C/c1cccnc1 |  | inconclusive: 29.1 µM [cytotoxic, single point]
COc1cc(OC)c(NC(=O)c2cc(S(=O)(=O)N3CCOCC3)cn2C)cc1Cl |  | inconclusive: 23.1 µM [cytotoxic, single point]
CCN1CCN(C(=O)CCc2nnc3ccc(N4CCC5(CC4)OCCO5)nn23)CC1 |  | inconclusive: 32.6 µM [rising, single point]
O=C(COC(=O)c1ccc([N+](=O)[O-])cc1)Nc1ccc(Cl)cn1 |  | inconclusive: 29.1 µM [rising, single point]
CN(C)S(=O)(=O)c1ccc(C(=O)Nc2cccc(C(=O)O)c2)cc1 | inactive: 5.44% | 
CCCc1nnc(NC(=O)c2ccc(S(=O)(=O)N(C)c3ccccc3OC)cc2)s1 |  | active: 14.6 µM
Cc1ccn2c(NCc3ccccc3)c(-c3cccc(SC4CCCCC4)c3)nc2c1 |  | active: 20.6 µM
Cc1ccc(C)c(-c2nnc(NC(=O)Cc3ccc(F)cc3)o2)c1 |  | inconclusive: 16.4 µM [cytotoxic, single point]
Cc1ccc(NC(=O)Cn2nc(C(F)(F)F)c3c2CCCC3)cc1C | inactive: 0.188% | 
CCOc1ccc(C2=CS/C(=C(\C#N)c3nnc4n3CCCCC4)N2CC)cc1 |  | active: 20.6 µM
CCOC(=O)c1ccccc1NC(=O)Cn1ncc2c1-c1ccccc1OC2 | inactive: -17.7% | 
CC(C)(C)n1nc2c(c1NC(=O)c1cccs1)CS(=O)C2 (centres undefined) | inconclusive: 111% | 
COc1ccc(-c2cn(Cc3ccc(C)cc3)nn2)cc1 |  | inconclusive: 23.1 µM [cytotoxic, partial curve, poor fit]
CN(Cc1ccccn1)C(=O)c1cc(COc2ccc(F)c(F)c2)on1 |  | inconclusive: 16.4 µM [cytotoxic, single point]

One compound at a time, as listed above.
CSc1ncc(C(=O)Nc2ccccc2C(F)(F)F)c(-c2ccccc2)n1 is listed as activity change, negative = cytotoxicity: inactive: -12.1%
Cc1ccn2c(NCc3ccccc3)c(-c3cccc(SC4CCCCC4)c3)nc2c1 is listed as Potency: active: 20.6 µM

Later entries

Structure (SMILES) | activity change, negative = cytotoxicity | Potency
COc1cc(CN2C(=O)C(Cc3ccccc3)ON=C2c2ncccc2C)cc(OC)c1 (centres undefined) |  | inconclusive: 10.3 µM [cytotoxic, partial curve]
CN(C)CCC(O)(c1ccccc1)c1ccccc1Cl (centres undefined) |  | inconclusive: 11.6 µM [cytotoxic, partial curve, poor fit]
CN(c1ccccc1)S(=O)(=O)c1cc(C(=O)NCc2ccco2)ccc1Cl |  | inconclusive: 29.1 µM [cytotoxic, single point]
C=CCNc1nc2c(c(=O)n(C)c(=O)n2C)n1CC | inactive: 0% | 
CCN(CC(=O)Nc1cc(Cl)ccc1C)C(=O)c1ccc2c(c1)NC(=O)C(C)S2 (centres undefined) |  | inconclusive: 18.4 µM [cytotoxic, single point]
O=C1Nc2ccccc2-n2nnnc2C1N1CCN(c2ccc(C(F)(F)F)cc2[N+](=O)[O-])CC1 (centres undefined) |  | inconclusive: 20.6 µM [cytotoxic, partial curve]
CN(C)S(=O)(=O)N1CCC(Oc2ccc(C(=O)NCc3cnn(C)c3)cc2)CC1 |  | inconclusive: 29.1 µM [cytotoxic, partial curve, poor fit]
CCOc1ccc2[nH]c(=O)c(C(c3nnnn3Cc3ccco3)N3CCCC(C)C3)cc2c1 (centres undefined) | inactive: 2.08% | 
C=CC(=O)Nc1ccc(N(C)c2ccnc(Nc3ccc(N4CCN(C)CC4)cc3)n2)cc1 |  | inconclusive: 29.1 µM [cytotoxic, single point]
CN(C)S(=O)(=O)c1ccc(Cl)c(NC(=O)CSc2nc3c(cc2C#N)C(=O)CCC3)c1 |  | active: 10.3 µM
O=C(COC(=O)C1CC2C=CC1C2)NCc1ccco1 (centres undefined) |  | inconclusive: 25.9 µM [rising, single point]
Cc1ccc(C(=O)NC(=S)N2CCN(C(=O)OC(C)(C)C)CC2)cc1Br |  | inconclusive: 23.1 µM [cytotoxic, single point]
CCC(C)(C)C1CCc2[nH]nc(C(=O)NCc3ccc(Cl)cc3)c2C1 (centres undefined) |  | inconclusive: 29.1 µM [rising, single point]
Cc1cccc(C(=O)OCC(=O)NCc2cccs2)c1 | inactive: 28.3% | 
O=C(OCc1ccccc1)C1=NNC2C(=O)N(Cc3ccccc3)C(=O)C12 (centres undefined) |  | inconclusive: 29.1 µM [rising, single point]
COc1ccc(NS(=O)(=O)c2ccc(N3CCOCC3)c(NC(=O)c3ccco3)c2)cc1 |  | inconclusive: 23.1 µM [cytotoxic, partial curve, poor fit]
COc1cc(OC)cc(C(=O)NNC(=O)CCNS(=O)(=O)c2ccc(C)c(C)c2)c1 |  | inconclusive: 29.1 µM [cytotoxic, single point]
